Measurements taken from patent US11766451B2, “Utilizing polymers and antibiotics to enhance antimicrobial activity and inhibit antibiotic resistance” (International Business Machines Corporation, priority 2018, dated 2023).
For some assays here: At least one structure is not confirmed: it was looked up by name or label, or the drawing left a doubt. Some of these results come from one statement about several compounds together.

How the values were obtained:
[1] = test system: various bacteria (e.g., Gram-negative bacteria and/or Gram-positive bacteria) including antibiotic-resistant strains; test: MIC reduction by combination therapy against various bacteria; type: cell-based; details: in the presence of the antimicrobial polymers
A. baumannii BAA-1709 = type: cell-based, Acinetobacter baumannii
Procedure: To monitor development of antibiotic 306 resistance in A. baumannii, antibiotics 306 at sub-lethal doses were used in combination with the example polycarbonate 200 to repeatedly treat A. baumannii BAA-1709. With concentrations of the example polycarbonate 200 fixed at ¼ or ½×MIC, the MIC of antibiotics 306 was measured by the broth microdilution method. At half of the antibiotic 306 MIC, the survived bacteria, which reached logarithmic growth phase, were collected for MIC measurement of the subsequent passage. The development of antibiotic 306 resistance was monitored for 30 passages and the MIC of the antibiotics 306 at ¼ or ½×MIC of the antimicrobial polymer (e.g., characterized by the first chemical structure 100 and/or the second chemical structure 102) was recorded for each passage. The resistance development of antibiotics 306 only and polymer only was also evaluated over 30 passages.

A. baumannii (BAA-1709) = test: Checkerboard / broth microdilution MIC; type: cell-based, Acinetobacter baumannii; details: with example polycarbonate 200 (table 500)
Source text: To evaluate antibacterial activity of antimicrobial polymer-antibiotic 306 combination therapies, the checkerboard method was used to create chart 400. By using this method, the minimum inhibitory concentration (“MIC”) of antibiotics 306, antimicrobial polymers (e.g., characterized by the first chemical structure 100 and/or the second chemical structure 102), and/or antibiotics 306/antimicrobial polymers (e.g., characterized by the first chemical structure 100 and/or the second chemical structure 102) combination at varying polymer concentrations can be determined. MIC was measured based on the broth microdilution method. 50 microliters (“μL”) of the example polycarbonate 200 at a serious of concentrations (micrograms per milliliter (μg/mL)) was added into a 96-well plate. […] Microbes (e.g., S. aureus, A. baumannii, E. coli, and/or P. aeruginosa) at exponential growth phases were diluted with […] (“MHB”) to about 10^5 colony forming units (“CFU”) per milliliter (CFU/mL), and 100 μL of diluted microbes were added into each well of the 96-well plate with 100 μL of antimicrobial polymer-antibiotic 306 mixture. […] The concentration at which there was no bacterial growth observed by naked eyes or a microplate reader at 600 nanometers (nm) was recorded as the MIC. […]

With `C[C@@H](O)[C@H]1C(=O)N2C(C(=O)O)=C(SCCN=CN)C[C@H]12` [imipenem] the “MIC reduction of antibiotic at polymer concentration of ½×MICp” value (shortened to “MIC reduction of antibiotic”) [1] was “at least 4 fold”, the “MIC of pure antibiotic over 30 generations” value (A. baumannii BAA-1709; antibiotic only) was “increased” and the “MIC of antibiotic over 30 generations in the presence of example polycarbonate 200 at ¼×MICp” value (A. baumannii BAA-1709; polymer fixed at ¼×MICp) was “did not change”. For the same compound, the “Change of antibiotic MIC as polymer concentration increased from 1/16×MICp to ½×MICp” value (A. baumannii (BAA-1709)) was “significantly reduced”.
In the case of `CC1(C)S[C@@H]2[C@H](NC(=O)Cc3ccccc3)C(=O)N2[C@H]1C(=O)O` [Penicillin G, Benzylpenicillin], the “MIC reduction of antibiotic” value [1] is reported as “at least 4 fold”.
In the case of `CC[C@H]1OC(=O)[C@H](C)[C@@H](O[C@H]2C[C@@](C)(OC)[C@@H](O)[C@H](C)O2)[C@H](C)[C@@H](O[C@@H]2O[C@H](C)C[C@H](N(C)C)[C@H]2O)[C@](C)(O)C[C@@H](C)CN(C)[C@H](C)[C@@H](O)[C@]1(C)O` [azithromycin], the “MIC reduction of antibiotic” value [1] is reported as “at least 4 fold”.
In the case of `CO[C@H]1/C=C/O[C@@]2(C)Oc3c(C)c(O)c4c(O)c(c(/C=N/N5CCN(C)CC5)c(O)c4c3C2=O)NC(=O)/C(C)=C\C=C\[C@H](C)[C@H](O)[C@@H](C)[C@@H](O)[C@@H](C)[C@H](OC(C)=O)[C@@H]1C` [rifampicin], the “MIC reduction of antibiotic” value [1] is reported as “at least 4 fold” and the “Change of antibiotic MIC as polymer concentration increased from 1/16×MICp to ½×MICp” value (A. baumannii (BAA-1709)) is reported as “significantly reduced”.
